No constants are given. Whether binding was seen depends on the method and setting. Some entries that bind do so weakly or less than the wild type.

Sequences of proteins named here, by UniProt entry; tags and fusion partners are left off. A change or cut given only in a name is not applied to a line headed by its entry.
UniProt Q9Y6Q9: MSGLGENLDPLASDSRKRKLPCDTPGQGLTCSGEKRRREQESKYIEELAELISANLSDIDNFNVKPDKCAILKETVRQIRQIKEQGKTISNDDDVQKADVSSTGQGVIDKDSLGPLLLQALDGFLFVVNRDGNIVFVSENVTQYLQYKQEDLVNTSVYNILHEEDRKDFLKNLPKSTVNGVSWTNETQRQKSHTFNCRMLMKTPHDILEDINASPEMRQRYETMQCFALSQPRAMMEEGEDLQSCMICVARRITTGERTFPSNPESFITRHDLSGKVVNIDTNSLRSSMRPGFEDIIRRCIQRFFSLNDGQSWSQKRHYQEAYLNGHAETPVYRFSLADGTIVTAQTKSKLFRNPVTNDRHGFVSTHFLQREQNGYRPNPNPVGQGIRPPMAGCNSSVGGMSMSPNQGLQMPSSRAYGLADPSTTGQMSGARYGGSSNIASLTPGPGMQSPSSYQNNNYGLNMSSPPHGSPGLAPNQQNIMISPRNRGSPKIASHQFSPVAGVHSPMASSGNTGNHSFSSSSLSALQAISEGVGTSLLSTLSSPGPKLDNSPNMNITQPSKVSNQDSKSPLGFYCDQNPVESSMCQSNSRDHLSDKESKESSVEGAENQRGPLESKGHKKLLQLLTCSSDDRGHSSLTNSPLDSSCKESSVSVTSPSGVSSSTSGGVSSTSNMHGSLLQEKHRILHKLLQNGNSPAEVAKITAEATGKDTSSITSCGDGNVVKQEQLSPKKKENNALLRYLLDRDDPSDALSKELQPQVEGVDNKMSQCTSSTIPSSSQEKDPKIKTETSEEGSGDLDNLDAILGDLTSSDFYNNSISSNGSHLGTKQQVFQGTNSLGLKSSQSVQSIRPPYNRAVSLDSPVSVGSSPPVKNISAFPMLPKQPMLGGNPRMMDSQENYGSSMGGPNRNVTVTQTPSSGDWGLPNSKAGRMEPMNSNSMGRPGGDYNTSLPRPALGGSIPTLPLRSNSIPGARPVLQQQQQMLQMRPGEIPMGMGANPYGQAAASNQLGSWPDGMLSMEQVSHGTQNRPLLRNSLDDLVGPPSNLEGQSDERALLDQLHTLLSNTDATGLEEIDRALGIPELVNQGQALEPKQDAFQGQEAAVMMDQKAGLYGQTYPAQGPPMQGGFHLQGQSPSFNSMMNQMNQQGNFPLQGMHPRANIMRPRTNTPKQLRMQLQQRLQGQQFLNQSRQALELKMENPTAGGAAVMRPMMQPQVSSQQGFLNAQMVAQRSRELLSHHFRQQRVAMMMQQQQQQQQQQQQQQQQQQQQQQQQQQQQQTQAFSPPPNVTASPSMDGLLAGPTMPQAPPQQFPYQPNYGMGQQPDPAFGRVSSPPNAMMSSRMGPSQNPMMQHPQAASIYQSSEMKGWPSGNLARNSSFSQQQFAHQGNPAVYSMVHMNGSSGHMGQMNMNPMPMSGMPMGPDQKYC

The results in this text go back to patent US7132258.

For this assay, the target named is T1, 35S-labeled hTRβ (in vitro translated; printed hTRp) (human) (UniProt P10828).
T1 sequence (looked up): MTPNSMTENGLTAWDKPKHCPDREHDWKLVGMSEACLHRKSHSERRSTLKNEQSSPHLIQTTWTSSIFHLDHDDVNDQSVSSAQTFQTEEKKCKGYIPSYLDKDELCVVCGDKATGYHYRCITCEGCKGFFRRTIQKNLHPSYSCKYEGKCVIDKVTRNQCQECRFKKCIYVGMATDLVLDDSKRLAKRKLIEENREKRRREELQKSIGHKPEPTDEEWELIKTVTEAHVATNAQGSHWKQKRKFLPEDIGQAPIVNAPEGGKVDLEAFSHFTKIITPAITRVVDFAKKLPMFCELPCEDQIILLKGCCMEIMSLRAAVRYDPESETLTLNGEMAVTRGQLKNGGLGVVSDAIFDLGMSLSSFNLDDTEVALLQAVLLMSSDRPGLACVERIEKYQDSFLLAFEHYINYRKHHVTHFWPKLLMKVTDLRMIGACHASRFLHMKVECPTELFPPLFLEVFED
Kind of assay: far-Western, GST-RAC3-RID on the filter, 35S-labeled receptor, 1 µM T3.

Take “GST-RAC3-RID fusion (from UniProt Q9Y6Q9 613-752)”: the binding entry is reported as “binds”.
